The whole screen tested about 300,000 compounds, of which about 5,200 (1.7%) were called active. The inconclusive results got no clear call from the source; some entries with a clear call stand among them for comparison.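 How the source made its calls: active means mean replicate activation of at least 50% with a set share of replicates each reaching 50%; inconclusive means only one of those two conditions met; inactive means mean below 50% and too few replicates reaching it.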
Assay: HSF-1 activators, primary screen, NIH3T3-HGL cells, MG132 stress, luminescence, single point (AID 504408);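 further: 0% = median of the neutral control wells and 100% = twice that signal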
Settings: NIH3T3-HGL HSF-1 luciferase reporter, MG132, 8 h; at 9 µM; active compounds read high; 100% = twice DMSO control signal

activation, inconclusive:
CCOC(=O)c1c(NC(=O)C2COc3ccccc3O2)sc2c1CC(C)(C)NC2(C)C (stereo unspecified) 51.7%, COc1ccc(N=N/C(C(C)=O)=C(/C)O)cc1 50%, CCOC(=O)c1c(N)c2cc([N+](=O)[O-])cnc2n1C 52.7%, O=[N+]([O-])c1ccc(/C=C/c2ccc3ccccc3n2)cc1 50.9%, Cc1sc(N2CCN(S(=O)(=O)c3ccc4c(c3)NC(=O)CO4)CC2)nc1-c1ccccc1 51.7%, COc1ccc(-n2c(SCC(=O)Nc3ccc(C(N)=O)cc3)nc3c([nH]c4ccccc43)c2=O)cc1OC 51.1%, Cc1cccc(N2C(=O)C(O)=C(C(=O)c3cccs3)C2c2ccc(C(C)C)cc2)n1 (stereo unspecified) 50.1%, CNC(=O)c1c(Br)cnn1-c1ccc(C)cc1 52.9%, CNc1ccc(Br)cc(C(=O)/C=C/c2ccc(Cl)cc2Cl)c1=O 53.3%, N#Cc1ccc(OCC(=O)N/N=C2/CC(c3ccccc3)Oc3ccccc32)cc1 (stereo unspecified) 50.3%, Oc1ccc(NC(=S)Nc2ccccc2)cc1 51.2%, Cc1ccc(OCc2ccc(C(=O)Nc3nccs3)o2)cc1C 50.3%, CCOC(=O)c1ccc2nc(NC(C)=O)sc2c1 50.6%, COc1cc(CNc2ncn[nH]2)ccc1OCc1cccc(C)c1 51.9%, O=C(Nc1ccc2c(c1)OCO2)C(=O)c1c[nH]c2ccccc12 51.1%, CCc1nc2c(sc3nc4c(cc32)COC(C)(C)C4)c(=O)n1Cc1ccco1 55.8%

activation, inactive:
CC(=O)Nc1nc2c(F)cccc2s1 -4.85%, O=C(Nc1ccccc1C(=O)Nc1ccccc1)c1cccs1 -1.12%, COc1ccc(N(CC(=O)NC(C)(C)C)C(=O)CCC(=O)Nc2nccs2)c(OC)c1 1.25%, Cc1ccc(O)c(N=Cc2cccs2)c1 16%, O=C(NC1CCCCC1)C(c1ccc(F)cc1)N(CCCN1CCOCC1)C(=O)c1ccc(CN2CCOCC2)o1 (stereo unspecified) 15.2%

activation, active:
CCC(=O)NC(=S)Nc1ccc(NC(=O)COc2ccc(Cl)c(C)c2)cc1 79.2%, COC(=O)c1ccc(COn2nnc3ccccc32)cc1 59.1%, Cc1ccc(/C=C2/NC(=O)N(Cc3ccc(Br)cc3)C2=O)o1 59%, COc1ccc(NC(=O)c2sccc2C)c([N+](=O)[O-])c1 74.2%, CC1(C)CC(=O)C(C=Nc2cccnc2)=C(O)C1 133%
